In paper PMC7102939, “N 1-Methylpseudouridine substitution enhances the performance of synthetic mRNA switches in cells”:

System: U1A
Assay: EMSA
Conditions: 1 uM RNA, 4 C 30 min, 12% native PAGE at 4 C, 1x from 5x buffer: U1A 20 mM HEPES pH 7.5, 80 mM KCl, 20 mM NaCl, 2 mM DTT, MS2CP 40 mM HEPES pH 7.5, 10 mM NaCl, recombinant protein, protein details: His

GACAGCAUUGUACCCAGAGUCUGUCCCCAGACAUUGCACCUGGCGCUGUC [2x U1A aptamer, m1Ψ]
binding result (affinity similar to native U, all U replaced by N1-methylpseudouridine): binds

GACAGCAUUGUACCCAGAGUCUGUCCCCAGACAUUGCACCUGGCGCUGUC [2x U1A aptamer, native U]
binding result: binds

GACAGCAUUGUACCCAGAGUCUGUCCCCAGACAUUGCACCUGGCGCUGUC [2x U1A aptamer, Ψ]
binding result (relatively weaker than native U and m1Ψ, all U replaced by pseudouridine): binds more weakly

Construct, isoform or probe ends are uncertain for at least one entry. Weaker means in comparison with the reference protein, sequence or condition of that experiment.
